The results in this text go back to article PMC6972895.

No constants are given. Whether binding was seen depends on the method and setting. Some binding calls cover weakened binding; strength is not graded here. Sequences can lack the tags named with a protein.

For the test, the target named is T1, CCT2-FLAG (FLAG-tagged CCT2, FLAG tag on the C-terminal of CCT2) (human), P78371.
T1 chain: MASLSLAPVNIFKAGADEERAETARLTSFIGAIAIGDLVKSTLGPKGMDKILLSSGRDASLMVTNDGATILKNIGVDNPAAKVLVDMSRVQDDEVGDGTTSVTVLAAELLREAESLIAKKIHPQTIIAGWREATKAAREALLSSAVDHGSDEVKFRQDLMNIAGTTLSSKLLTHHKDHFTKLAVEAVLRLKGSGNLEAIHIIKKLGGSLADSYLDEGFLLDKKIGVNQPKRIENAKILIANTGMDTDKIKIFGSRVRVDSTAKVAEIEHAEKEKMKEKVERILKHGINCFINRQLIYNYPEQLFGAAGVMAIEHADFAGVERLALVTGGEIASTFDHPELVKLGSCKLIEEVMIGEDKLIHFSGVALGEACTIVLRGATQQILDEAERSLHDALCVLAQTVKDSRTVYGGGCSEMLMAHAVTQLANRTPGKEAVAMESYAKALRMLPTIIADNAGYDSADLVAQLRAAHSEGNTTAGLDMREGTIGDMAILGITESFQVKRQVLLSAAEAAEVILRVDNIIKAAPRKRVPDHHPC
Kind of test: native gel or EMSA; native PAGE of T47D CCT2-FLAG cell lysates; blotted for FLAG, CCT2 and CCT3; oligomeric complex against free monomer. The following applies: remark: other sources report otherwise.

B1: Endogenous CCT2, P78371 1-535 (protein)
chain: MASLSLAPVNIFKAGADEERAETARLTSFIGAIAIGDLVKSTLGPKGMDKILLSSGRDASLMVTNDGATILKNIGVDNPAAKVLVDMSRVQDDEVGDGTTSVTVLAAELLREAESLIAKKIHPQTIIAGWREATKAAREALLSSAVDHGSDEVKFRQDLMNIAGTTLSSKLLTHHKDHFTKLAVEAVLRLKGSGNLEAIHIIKKLGGSLADSYLDEGFLLDKKIGVNQPKRIENAKILIANTGMDTDKIKIFGSRVRVDSTAKVAEIEHAEKEKMKEKVERILKHGINCFINRQLIYNYPEQLFGAAGVMAIEHADFAGVERLALVTGGEIASTFDHPELVKLGSCKLIEEVMIGEDKLIHFSGVALGEACTIVLRGATQQILDEAERSLHDALCVLAQTVKDSRTVYGGGCSEMLMAHAVTQLANRTPGKEAVAMESYAKALRMLPTIIADNAGYDSADLVAQLRAAHSEGNTTAGLDMREGTIGDMAILGITESFQVKRQVLLSAAEAAEVILRVDNIIKAAPRKRVPDHHPC
For B1, the binding result is reported as “binds”.
